No constants are given. Whether binding was seen depends on the method and setting. In cells and extracts the contact can be indirect. Some binding calls cover weakened binding; strength is not graded here.

The target in the assay is T1, TGF-β type I receptor (human (endogenous in A549 and H1299)) (UniProt P36897).
T1 sequence: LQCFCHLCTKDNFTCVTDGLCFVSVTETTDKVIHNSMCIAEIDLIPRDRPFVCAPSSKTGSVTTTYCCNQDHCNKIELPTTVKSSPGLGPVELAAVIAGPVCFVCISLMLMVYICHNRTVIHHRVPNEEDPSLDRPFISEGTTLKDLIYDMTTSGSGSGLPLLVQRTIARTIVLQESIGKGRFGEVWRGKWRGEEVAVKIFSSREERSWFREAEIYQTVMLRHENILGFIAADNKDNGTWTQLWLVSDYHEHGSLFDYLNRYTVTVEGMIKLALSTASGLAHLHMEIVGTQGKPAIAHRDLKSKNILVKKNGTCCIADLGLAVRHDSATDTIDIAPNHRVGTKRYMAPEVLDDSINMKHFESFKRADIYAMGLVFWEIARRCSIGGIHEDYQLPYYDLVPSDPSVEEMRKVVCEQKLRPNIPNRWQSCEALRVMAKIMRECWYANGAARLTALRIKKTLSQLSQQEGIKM
The assay is described as follows: co-IP; Pierce Co-IP Kit; 8 μg TβRI antibody coupled with the resin; 500 μg whole-cell lysate of A549 (pIRES-NC or pIRES-NgBR) or H1299 (shNC or shNgBR) cells, overnight at 4°C; eluate blotted for TβRI and NgBR.

B1: Nogo-B receptor (protein, UniProt Q96E22 1-293)
chain: MTGLYELVWRVLHALLCLHRTLTSWLRVRFGTWNWIWRRCCRAASAAVLAPLGFTLRKPPAVGRNRRHHRHPRGGSCLAAAHHRMRWRADGRSLEKLPVHMGLVITEVEQEPSFSDIASLVVWCMAVGISYISVYDHQGIFKRNNSRLMDEILKQQQELLGLDCSKYSPEFANSNDKDDQVLNCHLAVKVLSPEDGKADIVRAAQDFCQLVAQKQKRPTDLDVDTLASLLSSNGCPDPDLVLKFGPVDSTLGFLPWHIRLTEIVSLPSHLNISYEDFFSALRQYAACEQRLGK
As for B1, the binding entry is “binds”.

B2: Nogo-B receptor overexpressed from the pIRES-NgBR plasmid (protein, UniProt Q96E22 1-293)
chain: B1 chain
As for B2, the binding entry was “binds”.

For the origin of these results see publication PMC7778533.
